# This is one part of the list. Single values are uncertain, as repeats are few or missing.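 Cells were imaged in 1,536-well plates, and nuclei stained with an antibody against cleaved PARP were counted against all DNA-stained nuclei to give the apoptosis fraction. Screening doses were chosen to leave most cells alive, and resting and induced cleaved-PARP levels differ strongly between cell lines.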
# Experiments:
# Assay in all cases: cleaved PARP positive nuclei fraction relative to DMSO control; melanoma cells; higher = more apoptosis
# Conditions in all cases: library dose: low library concentration; 72 h
# [1] = test system: 501Mel
# [2] = test system: A101D
# [3] = test system: A2058
# [4] = test system: C32
# [5] = test system: CBRC008 (line from a melanoma biopsy)
# [6] = test system: CBRC014 (line from a melanoma biopsy)
# [7] = test system: CBRC016 (line from a melanoma biopsy)
# [8] = test system: CBRC017 (line from a melanoma biopsy)
# [9] = test system: COLO792
# [10] = test system: COLO800
# [11] = test system: COLO829
# [12] = test system: G361
# [13] = test system: IPC-298
# [14] = test system: IST-MEL1
# [15] = test system: LB2518-MEL
# [16] = test system: LOXIMVI
Compound,cleaved PARP positive nuclei fraction [1] [%],cleaved PARP positive nuclei fraction [2] [%],cleaved PARP positive nuclei fraction [3] [%],cleaved PARP positive nuclei fraction [4] [%],cleaved PARP positive nuclei fraction [5] [%],cleaved PARP positive nuclei fraction [6] [%],cleaved PARP positive nuclei fraction [7] [%],cleaved PARP positive nuclei fraction [8] [%],cleaved PARP positive nuclei fraction [9] [%],cleaved PARP positive nuclei fraction [10] [%],cleaved PARP positive nuclei fraction [11] [%],cleaved PARP positive nuclei fraction [12] [%],cleaved PARP positive nuclei fraction [13] [%],cleaved PARP positive nuclei fraction [14] [%],cleaved PARP positive nuclei fraction [15] [%],cleaved PARP positive nuclei fraction [16] [%]
"Nc1ccn([C@@H]2O[C@H](CO)[C@@H](O)C2(F)F)c(=O)n1 [gemcitabine] + N#Cc1c(O)c2c(-c3ccc(-c4ccccc4O)cc3)csc2[nH]c1=O [A769662] (first compound 0.0004 µM, partner dose 2 µM)",63.4,5.64,166,49,233,258,170,293,88.1,39.8,65.3,127,134,101,71,58.7
"C=C(c1ccc(C(=O)O)cc1)c1cc2c(cc1C)C(C)(C)CCC2(C)C [Bexarotene] + COc1ccc(COc2ccc(Cc3cnc(N)nc3N)cc2OC)cc1 [GW2580] (first compound 2 µM, partner dose 1 µM)",65.4,22.9,126,191,119,110,61.1,138,101,98.6,90.7,53,127,112,104,81.9
"CCCS(=O)(=O)Nc1ccc(F)c(C(=O)c2c[nH]c3ncc(Cl)cc23)c1F + COc1ccc(-c2ccc3c(N4CCOCC4)nc(N4C[C@@H](C)O[C@@H](C)C4)nc3n2)cc1CO [KU0063794] (first compound 0.08 µM, partner dose 0.02 µM)",116,31.5,70.7,117,317,293,52.1,82.8,139,34.4,63.2,341,52.3,100,60.5,218
"CNC(=O)c1cc(Oc2ccc(NC(=O)Nc3ccc(Cl)c(C(F)(F)F)c3)cc2)ccn1 [sorafenib] + CCc1ccc(CCOc2ccc(CC3SC(=O)NC3=O)cc2)nc1 [pioglitazone] (first compound 0.4 µM, partner dose 2 µM)",110,13.9,88.9,104,120,88.7,66.9,93.1,124,90.4,94.6,202,62.2,69.4,93.9,71.9
"Nc1nc(F)nc2c1ncn2[C@@H]1O[C@H](CO)[C@@H](O)[C@@H]1O [fludarabine] + O=C(O)C(=O)Nc1sc2c(c1C(=O)O)CCNC2 [TCS401] (first compound 0.2 µM, partner dose 1.66667 µM)",694,23.7,82.3,117,79.6,76.5,121,76.4,88.5,79.5,144,42.2,123,87,41.9,53.9
"CN1CCN(c2ccc3nc(-c4c(N)c5c(F)cccc5[nH]c4=O)[nH]c3c2)CC1 [Dovitinib] + Cc1cc([N+](=O)[O-])ccc1NS(=O)(=O)c1cc(Cl)ccc1Cl [FH535] (first compound 0.1 µM, partner dose 1 µM)",74.6,21.3,102,83.3,607,167,1670,326,127,69.4,19.8,156,99.7,109,82.4,188
"C=C(c1ccc(C(=O)O)cc1)c1cc2c(cc1C)C(C)(C)CCC2(C)C [Bexarotene] + COc1ccc2c(c1)CCC1C2CCC2(C)C(NCCCCCCN3C(=O)C=CC3=O)CCC12 [U73122] (first compound 2 µM, partner dose 0.4 µM)",71,26.8,151,167,172,142,97.9,223,146,105,136,89.7,351,188,139,76.1
"Nc1ccn([C@@H]2O[C@H](CO)[C@@H](O)C2(F)F)c(=O)n1 [gemcitabine] + CCCCCCCCCCCC1=C(O)C(=O)C=C(O)C1=O [Embelin] (first compound 0.0004 µM, partner dose 1.2 µM)",125,43.4,39.3,27,165,141,31.3,94.9,66.3,104,118,115,49.2,142,68.9,75.8
"CO[C@H]1C[C@@H]2CC[C@@H](C)[C@@](O)(O2)C(=O)C(=O)N2CCCC[C@H]2C(=O)O[C@H]([C@H](C)C[C@@H]2CC[C@@H](OCCO)[C@H](OC)C2)CC(=O)[C@H](C)/C=C(\C)[C@@H](O)[C@@H](OC)C(=O)[C@H](C)C[C@H](C)/C=C/C=C/C=C/1C [everolimus] + COc1ccc(-c2ccc3c(N4CCOCC4)nc(N4C[C@@H](C)O[C@@H](C)C4)nc3n2)cc1CO [KU0063794] (first compound 0.02 µM, partner dose 0.02 µM)",249,32.6,93.8,91.6,499,116,63,131,124,72.6,88.1,184,120,139,85.1,41
"C[C@@H](Oc1cc(-c2cnn(C3CCNCC3)c2)cnc1N)c1c(Cl)ccc(F)c1Cl [Crizotinib] + O=C1NC(=O)/C(=C/c2ccc(-c3ccc(F)cc3O)o2)S1 [AS252424] (first compound 0.2 µM, partner dose 1 µM)",75.6,13,101,187,49.8,83.6,74,89,105,74.3,68.6,62.4,76,119,72.1,111
"Cc1cc(Nc2cc(N3CCN(C)CC3)nc(/C=C/c3ccccc3)n2)n[nH]1 + COc1ccc(-c2ccc3c(N4CCOCC4)nc(N4C[C@@H](C)O[C@@H](C)C4)nc3n2)cc1CO [KU0063794] (first compound 0.04 µM, partner dose 0.02 µM)",33.6,48,108,91.7,190,139,59.5,80.4,97.1,24.1,139,114,205,104,46.9,40.3
"Nc1ncn([C@H]2C[C@H](O)[C@@H](CO)O2)c(=O)n1 [decitabine] + Cc1cc([N+](=O)[O-])ccc1NS(=O)(=O)c1cc(Cl)ccc1Cl [FH535] (first compound 0.1 µM, partner dose 1 µM)",84.5,16.5,59.2,40.4,970,216,789,923,86.4,51.1,104,180,80.7,92.4,189,159
"Cn1c(=O)n(-c2ccc(C(C)(C)C#N)cc2)c2c3cc(-c4cnc5ccccc5c4)ccc3ncc21 + CCc1ccc(CCOc2ccc(CC3SC(=O)NC3=O)cc2)nc1 [pioglitazone] (first compound 0.004 µM, partner dose 2 µM)",62.5,16.3,126,116,152,100,91.6,114,72.6,86.8,92.8,136,85.5,212,43.9,259
"C=C(c1ccc(C(=O)O)cc1)c1cc2c(cc1C)C(C)(C)CCC2(C)C [Bexarotene] + Oc1cc(-c2nc(-c3ccccc3)[nH]c2-c2ccncc2)ccc1Cl [L779450] (first compound 2 µM, partner dose 0.2 µM)",74.6,24,57.1,116,250,90.8,53.7,218,93.9,22.1,97.6,118,52.3,149,83.7,23.8
"CS(=O)(=O)CCNCc1ccc(-c2ccc3ncnc(Nc4ccc(OCc5cccc(F)c5)c(Cl)c4)c3c2)o1 [lapatinib] + CC(C)CCN1c2nc(Nc3cc(F)c(O)c(F)c3)ncc2N(C)C(=O)C1C [BID1870] (first compound 0.8 µM, partner dose 0.2 µM)",90,42.6,81,35.8,140,130,50.4,134,149,98.8,109,235,150,89.1,35.2,150
"C=C(c1ccc(C(=O)O)cc1)c1cc2c(cc1C)C(C)(C)CCC2(C)C [Bexarotene] + CCCCCCCCCCCC1=C(O)C(=O)C=C(O)C1=O [Embelin] (first compound 2 µM, partner dose 1.2 µM)",126,24.8,31.7,66,167,91.9,64.8,123,109,49.1,91.8,90.9,92.6,104,27.4,58.8
"CCCS(=O)(=O)Nc1ccc(F)c(C(=O)c2c[nH]c3ncc(Cl)cc23)c1F + CCc1ccc(CCOc2ccc(CC3SC(=O)NC3=O)cc2)nc1 [pioglitazone] (first compound 0.08 µM, partner dose 2 µM)",73.6,43.5,81.8,45.8,63.7,87.8,113,216,85.1,55.2,73.7,108,52,51.6,73.7,44.7
"C=C(c1ccc(C(=O)O)cc1)c1cc2c(cc1C)C(C)(C)CCC2(C)C [Bexarotene] + COc1cc(N2CCC(N3CCN(C)CC3)CC2)ccc1Nc1ncc(Cl)c(Nc2ccccc2S(=O)(=O)C(C)C)n1 [NVP-TAE684] (first compound 2 µM, partner dose 0.08 µM)",120,21.8,99.2,125,123,138,94.3,115,57.3,202,116,91.1,91,48.5,39.5,67.3

# In a second layout: entries from further up.
Compound	cleaved PARP positive nuclei fraction [1] [%]	cleaved PARP positive nuclei fraction [2] [%]	cleaved PARP positive nuclei fraction [3] [%]	cleaved PARP positive nuclei fraction [4] [%]	cleaved PARP positive nuclei fraction [5] [%]	cleaved PARP positive nuclei fraction [6] [%]	cleaved PARP positive nuclei fraction [7] [%]	cleaved PARP positive nuclei fraction [8] [%]	cleaved PARP positive nuclei fraction [9] [%]	cleaved PARP positive nuclei fraction [10] [%]	cleaved PARP positive nuclei fraction [11] [%]	cleaved PARP positive nuclei fraction [12] [%]	cleaved PARP positive nuclei fraction [13] [%]	cleaved PARP positive nuclei fraction [14] [%]	cleaved PARP positive nuclei fraction [15] [%]	cleaved PARP positive nuclei fraction [16] [%]
CCCS(=O)(=O)Nc1ccc(F)c(C(=O)c2c[nH]c3ncc(Cl)cc23)c1F + COc1ccc(-c2ccc3c(N4CCOCC4)nc(N4C[C@@H](C)O[C@@H](C)C4)nc3n2)cc1CO [KU0063794] (first compound 0.08 µM, partner dose 0.02 µM)	116	31.5	70.7	117	317	293	52.1	82.8	139	34.4	63.2	341	52.3	100	60.5	218
CO[C@H]1C[C@@H]2CC[C@@H](C)[C@@](O)(O2)C(=O)C(=O)N2CCCC[C@H]2C(=O)O[C@H]([C@H](C)C[C@@H]2CC[C@@H](OCCO)[C@H](OC)C2)CC(=O)[C@H](C)/C=C(\C)[C@@H](O)[C@@H](OC)C(=O)[C@H](C)C[C@H](C)/C=C/C=C/C=C/1C [everolimus] + COc1ccc(-c2ccc3c(N4CCOCC4)nc(N4C[C@@H](C)O[C@@H](C)C4)nc3n2)cc1CO [KU0063794] (first compound 0.02 µM, partner dose 0.02 µM)	249	32.6	93.8	91.6	499	116	63	131	124	72.6	88.1	184	120	139	85.1	41
C=C(c1ccc(C(=O)O)cc1)c1cc2c(cc1C)C(C)(C)CCC2(C)C [Bexarotene] + Oc1cc(-c2nc(-c3ccccc3)[nH]c2-c2ccncc2)ccc1Cl [L779450] (first compound 2 µM, partner dose 0.2 µM)	74.6	24	57.1	116	250	90.8	53.7	218	93.9	22.1	97.6	118	52.3	149	83.7	23.8
CCCS(=O)(=O)Nc1ccc(F)c(C(=O)c2c[nH]c3ncc(Cl)cc23)c1F + CCc1ccc(CCOc2ccc(CC3SC(=O)NC3=O)cc2)nc1 [pioglitazone] (first compound 0.08 µM, partner dose 2 µM)	73.6	43.5	81.8	45.8	63.7	87.8	113	216	85.1	55.2	73.7	108	52	51.6	73.7	44.7

# Source: the supplement of paper PMC4604168 (melanoma cell lines)
